# Where “and” joins values, the source holds several entries; their conditions need not be identical. Equal values may be shown once. Read-outs that look alike come from different tables or passages of the source. At least one peptide structure holds a part that was inferred or is arguable (an end, a ring closure or a residue). Bridge positions count the residues as written; N and C are the ends. Peptide text beside a SMILES is read from it.
# By UniProt entry, the sequences of proteins in these tests, tags left out. Where a name states a change or a piece, a line headed by the entry shows the natural chain unless it says otherwise. Residues count along the entry.
# UniProt P58154, 20-229 limits assumed: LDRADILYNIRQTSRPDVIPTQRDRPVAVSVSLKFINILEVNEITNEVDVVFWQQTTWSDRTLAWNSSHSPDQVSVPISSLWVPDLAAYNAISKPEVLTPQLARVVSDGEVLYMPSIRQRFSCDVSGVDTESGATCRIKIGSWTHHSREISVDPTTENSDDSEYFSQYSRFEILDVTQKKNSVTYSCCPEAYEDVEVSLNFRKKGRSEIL
# UniProt Q8WSF8, 18-236: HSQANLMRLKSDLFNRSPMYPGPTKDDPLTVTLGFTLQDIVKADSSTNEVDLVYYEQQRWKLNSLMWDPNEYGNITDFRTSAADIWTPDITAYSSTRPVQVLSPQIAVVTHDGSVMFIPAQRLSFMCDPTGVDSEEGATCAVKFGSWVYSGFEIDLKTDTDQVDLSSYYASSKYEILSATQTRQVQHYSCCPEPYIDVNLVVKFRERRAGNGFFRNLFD
# UniProt Q05941, 23-502 limits assumed: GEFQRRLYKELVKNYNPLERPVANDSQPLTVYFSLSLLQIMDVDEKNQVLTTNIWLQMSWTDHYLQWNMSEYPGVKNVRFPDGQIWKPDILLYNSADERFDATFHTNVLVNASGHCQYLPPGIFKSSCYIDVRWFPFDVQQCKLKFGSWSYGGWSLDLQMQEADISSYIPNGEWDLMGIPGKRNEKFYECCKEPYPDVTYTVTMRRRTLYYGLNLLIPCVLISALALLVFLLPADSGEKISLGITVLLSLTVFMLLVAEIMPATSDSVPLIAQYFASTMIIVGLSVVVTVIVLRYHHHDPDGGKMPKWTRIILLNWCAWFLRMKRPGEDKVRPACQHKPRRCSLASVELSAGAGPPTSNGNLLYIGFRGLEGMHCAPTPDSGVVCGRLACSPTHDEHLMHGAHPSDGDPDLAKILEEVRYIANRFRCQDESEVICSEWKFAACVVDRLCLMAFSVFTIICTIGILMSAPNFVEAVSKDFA
# UniProt P02716: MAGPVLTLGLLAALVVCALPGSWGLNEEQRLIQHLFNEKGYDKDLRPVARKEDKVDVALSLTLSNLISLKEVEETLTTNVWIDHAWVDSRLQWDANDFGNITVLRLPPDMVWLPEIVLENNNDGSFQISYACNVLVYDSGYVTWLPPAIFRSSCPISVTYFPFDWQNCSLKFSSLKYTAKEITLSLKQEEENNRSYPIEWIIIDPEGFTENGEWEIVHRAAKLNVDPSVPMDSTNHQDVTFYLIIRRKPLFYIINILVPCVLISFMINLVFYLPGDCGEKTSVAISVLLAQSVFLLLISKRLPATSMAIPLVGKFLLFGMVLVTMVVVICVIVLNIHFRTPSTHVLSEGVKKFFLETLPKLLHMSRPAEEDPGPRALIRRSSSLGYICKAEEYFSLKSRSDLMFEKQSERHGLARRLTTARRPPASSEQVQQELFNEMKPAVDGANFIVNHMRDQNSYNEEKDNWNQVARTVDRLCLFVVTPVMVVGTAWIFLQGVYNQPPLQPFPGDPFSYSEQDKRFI
# UniProt P04756: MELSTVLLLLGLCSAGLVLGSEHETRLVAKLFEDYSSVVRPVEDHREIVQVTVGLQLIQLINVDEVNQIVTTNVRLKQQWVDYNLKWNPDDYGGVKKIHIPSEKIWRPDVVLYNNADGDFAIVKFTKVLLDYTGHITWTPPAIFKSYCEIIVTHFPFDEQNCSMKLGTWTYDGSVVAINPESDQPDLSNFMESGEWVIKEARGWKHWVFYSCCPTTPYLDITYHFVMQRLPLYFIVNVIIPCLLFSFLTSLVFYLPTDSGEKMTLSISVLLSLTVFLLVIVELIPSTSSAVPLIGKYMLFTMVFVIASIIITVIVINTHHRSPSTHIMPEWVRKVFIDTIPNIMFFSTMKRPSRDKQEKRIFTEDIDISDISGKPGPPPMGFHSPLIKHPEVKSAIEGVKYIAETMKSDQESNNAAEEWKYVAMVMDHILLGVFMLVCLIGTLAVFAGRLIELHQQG
# UniProt P04760: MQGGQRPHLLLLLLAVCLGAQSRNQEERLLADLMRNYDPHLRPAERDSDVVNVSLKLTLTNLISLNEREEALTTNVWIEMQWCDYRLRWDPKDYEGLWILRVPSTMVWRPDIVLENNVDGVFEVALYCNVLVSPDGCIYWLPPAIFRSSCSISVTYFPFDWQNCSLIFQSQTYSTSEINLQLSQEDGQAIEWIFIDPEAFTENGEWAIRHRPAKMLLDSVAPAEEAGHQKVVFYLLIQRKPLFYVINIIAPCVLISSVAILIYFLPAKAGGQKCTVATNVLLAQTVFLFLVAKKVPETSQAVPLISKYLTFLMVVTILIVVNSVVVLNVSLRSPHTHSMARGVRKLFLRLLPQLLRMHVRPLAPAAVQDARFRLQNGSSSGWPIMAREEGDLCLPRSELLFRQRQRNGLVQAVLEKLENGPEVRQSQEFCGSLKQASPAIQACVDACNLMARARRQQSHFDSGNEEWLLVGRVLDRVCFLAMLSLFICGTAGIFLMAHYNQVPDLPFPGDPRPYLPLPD
# Legend:
# [1] = molecular target: Lymnaea AChBP (Lymnaea stagnalis, UniProt P58154); type: binding
# [2] = molecular target: Aplysia AChBP (Aplysia californica, UniProt Q8WSF8); type: binding
# [3] = molecular target: neuronal-type nAChR α7 subunit (Rattus norvegicus, UniProt Q05941); details: read-out: Kd for neuronal-type nAChR α7 subunit; cited from earlier work
# [4] = molecular target: muscle-type nAChR (Mus musculus, UniProt P02716+P04756+P04760); details: read-out: Kd with muscle-type nAChR; cited from earlier work
structure (smiles),measurement,setting,value
CC[C@H](C)[C@H](NC(=O)[C@H](Cc1ccc(O)cc1)NC(=O)[C@H](Cc1c[nH]cn1)NC(=O)[C@@H]1CSSC[C@H](NC(=O)[C@@H]2CCCN2C(=O)[C@H](CCCNC(=N)N)NC(=O)[C@H](CC(C)C)NC(=O)[C@H](CC(=O)O)NC(=O)[C@@H]2CCCN2C(=O)[C@H](CCCCN)NC(=O)CNC(=O)CN)C(=O)N[C@@H](Cc2c[nH]cn2)C(=O)N2CCC[C@H]2C(=O)N2CCC[C@H]2C(=O)N1)C(=O)N1CCC[C@H]1C(=O)N[C@@H](CCCNC(=N)N)C(=O)N1CCC[C@H]1C(=O)N[C@@H](CCCCN)C(=O)N1CCC[C@H]1C(=O)N[C@@H](CCCNC(=N)N)C(=O)O [Waglerin-1] (H-GGKPDLRPCHPPCHYIPRPKPR-OH; disulfide 9-13),k1,[1],4.8e+06 M⁻¹ s⁻¹
same,k−1,[1],31 s⁻¹
CC[C@H](C)[C@H](NC(=O)[C@H](Cc1ccc(O)cc1)NC(=O)[C@H](Cc1cnc[nH]1)NC(=O)[C@@H]1CSSC[C@H](NC(=O)[C@@H]2CCCN2C(=O)[C@H](CCCNC(=N)N)NC(=O)[C@H](CC(C)C)NC(=O)[C@H](CC(=O)O)NC(=O)[C@@H]2CCCN2C(=O)[C@H](CCCCN)NC(=O)CNC(=O)CN)C(=O)N[C@@H](Cc2cnc[nH]2)C(=O)N2CCC[C@H]2C(=O)N2CCC[C@H]2C(=O)N1)C(=O)N1CCC[C@H]1C(=O)N[C@@H](CCCNC(=N)N)C(=O)N1CCC[C@H]1C(=O)N[C@@H](CCCCN)C(=O)N1CCC[C@H]1C(=O)N[C@@H](CCCNC(=N)N)C(=O)O [Waglerin-1] (H-GGKPDLRPCHPPCHYIPRPKPR-OH; disulfide 9-13),Kd,[1],6.5 µM
C[C@@H]1NC(=O)[C@@H]2CSSC[C@H](NC(=O)CN)C(=O)N[C@@H](CSSC[C@@H](C(N)=O)NC(=O)[C@H](CCCNC(=N)N)NC(=O)[C@H](Cc3c[nH]c4ccccc34)NC1=O)C(=O)N[C@@H](CO)C(=O)N[C@@H](CC(=O)O)C(=O)N1CCC[C@H]1C(=O)N[C@@H](CCCNC(=N)N)C(=O)N2 [α-Conotoxin ImI],k1 Lymnaea,[1],1.4e+06 M⁻¹ s⁻¹
same,k−1 Lymnaea,[1],19 s⁻¹
same,Kd,[1]; read-out: Kd for Lymnaea AChBP,~14 µM
same,Kd,[1]; read-out: Lymnaea Kd,~14 µM and 14 µM
same,Kd Ratio L/A,[2],"16,000"
same,affinity for A-AChBP greater than that for L-AChBP,[2],more than 4 orders of magnitude
same,greater affinity for Aplysia over the Lymnaea protein,[2],"16,000 fold"
same,k1 Aplysia,[2],1.6e+07 M⁻¹ s⁻¹
same,k−1 Aplysia,[2],0.01 s⁻¹
same,Kd,[3],~0.22 µM and 0.22 µM
same,Kd,[4],~51 µM
